Measurements as given in PubChem BioAssay AID445 (National Center for Advancing Translational Sciences (NCATS), 2006).
The other results are listed elsewhere or left out. These are further read-outs of the screen, such as a control signal, another cell line or another target. No call is given for them. Most of these compounds were active or inconclusive in the main read-out, so they are no random draw. Potencies come from curve fits of mixed quality, noted in brackets.

Test: IkB Signaling
Conditions: ABC-DLBCL IkBa-CBG/CBR dual luciferase ratio (green luciferase fused to IkBa over red control in OCI-Ly3 lymphoma cells), 4 h
Outline: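 Curves were fitted separately to fusion (green), unfused (red) and ratio luminescence, then classed by r2, magnitude and activity. Cells: OCI-Ly3, 4 h compound plus doxycycline at 37C; 10 uM MG-132 defined full response.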

[1] = measured here: control luc red channel unless noted

O=C(Nc1ccc(F)c(Cl)c1)C1CCCN1S(=O)(=O)c1ccc(F)cc1 (stereo unspecified)
AC50 [1]: 20 µM [falling, single point]

c1csc(-c2nnsc2-c2nc3ccccc3[nH]2)c1
AC50 [1]: 12.6 µM [falling, partial curve]

O=C(c1cc(-c2cccs2)on1)N1CCc2ccccc2C1
AC50 [1]: 7.94 µM [falling, partial curve]

Cc1cc(-c2nc3ccccc3s2)ccc1NC(=O)c1cc(Cl)ccc1Cl
AC50 [1]: 0.126 µM [rising, full curve]

CCc1ccc(N2C(=O)CS(=O)(=O)C23C(=O)N(Cc2ccccc2F)c2ccccc23)cc1 (stereo unspecified)
AC50 [1]: 12.6 µM [falling, partial curve]

CCOc1cc(C2c3c(oc4ccccc4c3=O)C(=O)N2Cc2ccccc2Cl)ccc1O (stereo unspecified)
AC50 [1]: 7.94 µM [falling, single point]

O=C(N/N=C\c1ccc2c(c1)CCC2)c1ccccc1O
AC50 [1]: 2 µM [falling, partial curve]

Cc1ccc(Nc2ncnc3nc[nH]c23)cc1Cl
AC50 [1]: 12.6 µM [falling, partial curve]

COc1ccc(C2CC(=O)c3c([nH]c(C(=O)OCCOc4ccccc4)c3C)C2)cc1OC (stereo unspecified)
AC50 [1]: 12.6 µM [rising, partial curve]

Cc1cc(NC(=O)Nc2ccc(N(C)C)cc2)c2cc(F)cc(F)c2n1
AC50 [1]: 3.16 µM [falling, full curve]

Cc1cc(NC(=O)CN2C(=O)CSc3ccc(S(=O)(=O)N(C)C)cc32)ccc1Br
AC50 [1]: 10 µM [falling, partial curve]

CC(C)CC(/C(O)=C(\C#N)c1nc2ccccc2[nH]1)N1C(=O)c2ccccc2C1=O (stereo unspecified)
AC50 [1]: 10 µM [falling, partial curve]

CSc1ccc(CCNC(=O)c2ccc3c(c2)nc2n3CCOC2)cc1
AC50 [1]: 20 µM [falling, single point]

Cc1ccc(NC(=O)c2ccc(F)c(S(=O)(=O)N3CCc4ccccc4C3)c2)cc1F
AC50 [1]: 10 µM [falling, partial curve]

Cc1ccc(-n2c(SCC(=O)N3CCC(C)CC3)nc3c([nH]c4ccccc43)c2=O)cc1
AC50 [1]: 3.16 µM [rising, full curve, poor fit]

CCOC(=O)c1[nH]c2c(c1C)C(=O)CC(c1ccc(F)cc1)C2 (stereo unspecified)
AC50 (measured here: IkB-luc green channel): 3.98 µM [rising, full curve] | AC50 (measured here: control luc red channel): 1.58 µM [rising, full curve, poor fit]

CCOC(=O)c1scc(-c2ccc(C)cc2)c1S(=O)(=O)Nc1ccc(F)c(F)c1
AC50 [1]: 12.6 µM [falling, partial curve]

Cn1c(=O)n(CCCc2ccccc2)c(=O)c2c1nc1n2CCN1c1ccccc1
AC50 [1]: 31.6 µM [falling, single point]

CCOC(=O)c1ccc(NC(=O)CN2C(=O)CC(c3ccc(C)c(C)c3)=Nc3ccccc32)cc1
AC50 [1]: 20 µM [rising, partial curve]

CCOC(=O)N1CCc2c(sc(NCc3sccc3C)c2C(=O)Nc2ccccc2OCC)C1
AC50 [1]: 25.1 µM [falling, partial curve]

CCOc1ccc(CCNC(=O)c2ccc3c(c2)N(Cc2cccc(Cl)c2)C(=O)c2ccccc2S3(=O)=O)cc1OCC
AC50 [1]: 0.398 µM [rising, full curve]

CCCCNC1C(CC)C(CCC)C(C#N)(C#N)C1(C#N)C#N (stereo unspecified)
AC50 [1]: 7.94 µM [falling, partial curve]

Cc1ccc(NC(=O)CSc2nnc3ccc4ccccc4n23)cc1
AC50 [1]: 1.26 µM [rising, full curve]

Cc1cccc(C(=O)NCC(c2ccco2)S(=O)(=O)c2cccs2)c1 (stereo unspecified)
AC50 [1]: 5.01 µM [falling, full curve, poor fit]

Cc1cccc(NC(=O)c2ccc(-c3ccccc3)s2)c1
AC50 [1]: 3.98 µM [falling, partial curve]

CCC(Oc1ccccc1)C(=O)Nc1nnc(S(=O)(=O)N(CC)CC)s1 (stereo unspecified)
AC50 [1]: 3.16 µM [falling, partial curve]

CCc1ccc(NC(=O)c2cnn(-c3ccccc3)c2-n2cccc2)cc1
AC50 [1]: 20 µM [falling, single point]

CCC(C)c1ccc2oc(-c3ccc(NC(=O)c4cc5ccccc5o4)cc3)nc2c1 (stereo unspecified)
AC50 [1]: 10 µM [falling, partial curve, poor fit]

Cc1cccc(Cn2c(=O)n3nc(-c4ccccc4)nc3c3ccccc32)c1
AC50 [1]: 6.31 µM [falling, full curve]

CCCC(=O)Nc1nnc(S(=O)(=O)N(C)Cc2ccc(Cl)cc2)s1
AC50 [1]: 5.01 µM [falling, full curve]

Cn1c(=O)[nH]c2cc(-c3noc(-c4ccc(Br)cc4)n3)ccc21
AC50 [1]: 2 µM [rising, full curve]

COc1ccccc1Nc1nc(-c2ccccc2F)nc2ccccc12
AC50 [1]: 12.6 µM [falling, partial curve]

COc1ccc(OC)c(S(=O)(=O)Nc2ccc3oc4c(c3c2)C(=O)CCC4)c1
AC50 [1]: 10 µM [falling, partial curve]

COc1cc2c(C(=O)Nc3cc(OC)c(OC)c(OC)c3)cn(C)c(=O)c2cc1OC
AC50 [1]: 15.8 µM [falling, partial curve]

Cc1ccc(-n2nc(C)c3c2OC(N)=C(C#N)C3c2ccc(F)cc2)cc1 (stereo unspecified)
AC50 [1]: 15.8 µM [falling, partial curve]

CCN(CC)S(=O)(=O)c1ccc2c(c1)N(CC(=O)Nc1ccccc1F)C(=O)C1CCCN21 (stereo unspecified)
AC50 [1]: 15.8 µM [falling, partial curve]

Cc1cnc(NC(=O)CSc2nnc(-c3ccccc3)n2Cc2ccccc2)s1
AC50 [1]: 15.8 µM [falling, partial curve]

O=C1CS(=O)(=O)C2(C(=O)N(Cc3ccccc3Cl)c3ccccc32)N1c1ccc(F)cc1 (stereo unspecified)
AC50 [1]: 10 µM [falling, partial curve]

CCOc1cccc(NC(=O)C2CC(=O)N(CC)C(=Nc3ccc(F)cc3)S2)c1 (stereo unspecified)
AC50 [1]: 31.6 µM [falling, single point]

Cc1ccc(NC(=O)/C(C#N)=C/c2ccc(-c3ccc(Cl)c(C(=O)O)c3)o2)cc1C
AC50 [1]: 12.6 µM [falling, partial curve]
